Reference: paper PMC7226468, “Insight into the RssB-Mediated Recognition and Delivery of σ^s to the AAA+ Protease, ClpXP” (Biomolecules, 2020)
Results are given in words; binding and its absence hold for the method and conditions named. For part of these data: A result given as binding can be weak or reduced; the word gives no strength. For part of these data: Where a sequence is shown, tags or fusion partners need not be part of it.

Sequences of proteins named here, by UniProt entry; tags and fusion partners are left off. A change or cut given only in a name is not applied to a line headed by its entry.
UniProt P0A6H1: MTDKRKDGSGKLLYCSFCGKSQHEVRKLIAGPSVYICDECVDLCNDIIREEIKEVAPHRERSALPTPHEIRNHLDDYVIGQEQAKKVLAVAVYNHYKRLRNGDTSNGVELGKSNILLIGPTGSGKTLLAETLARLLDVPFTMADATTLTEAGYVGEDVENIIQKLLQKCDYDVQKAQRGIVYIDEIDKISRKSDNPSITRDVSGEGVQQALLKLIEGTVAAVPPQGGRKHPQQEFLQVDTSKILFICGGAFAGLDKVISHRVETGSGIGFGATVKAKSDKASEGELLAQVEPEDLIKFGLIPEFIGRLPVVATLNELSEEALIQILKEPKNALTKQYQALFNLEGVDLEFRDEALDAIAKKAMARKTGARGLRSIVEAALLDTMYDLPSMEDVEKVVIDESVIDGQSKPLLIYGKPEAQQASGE

Assays:
[1] = biological target: T1, RssB peptide library spot 20 (13-mer) (E. coli) (UniProt P0AEV1); experiment: peptide or protein array; RssB 13-mer peptides (overlapping by 10) on cellulose membrane, panned with 2.5 μM ecClpXZBD in MP2 buffer pH 7.6, 100 mM KCl, 30 min, room temperature; bound protein transferred to PVDF, detected with anti-ClpX antisera; both purified
T1 sequence (peptide): DIAMPRMNGLKLL

[2] = biological target: T2, RssB peptide library spot 23 (13-mer) (E. coli) (UniProt P0AEV1); experiment: as above
T2 sequence (peptide): LKLLEHIRNRGDQ

[3] = biological target: T3, RssB peptide library spot 82 (13-mer) (E. coli) (UniProt P0AEV1); experiment: as above
T3 sequence (peptide): LLKQVNHLLRQAN

[4] = biological target: T4, RssB peptide library spot 90 (13-mer) (E. coli) (UniProt P0AEV1); experiment: as above
T4 sequence (peptide): YHRELKNLILVSA

[5] = biological target: T5, RssB peptide library spot 22 (13-mer) (E. coli) (UniProt P0AEV1); experiment: as above
T5 sequence (peptide): MNGLKLLEHIRNR

[6] = biological target: T6, RssB peptide library spot 109 (13-mer), putative RssBXBR motif (E. coli) (UniProt P0AEV1); experiment: as above
T6 sequence (peptide): GTGGRLRLMLSAE

[7] = biological target: T7, RssB peptide library spot 81 (13-mer) (E. coli) (UniProt P0AEV1); experiment: as above
T7 sequence (peptide): LGALLKQVNHLLR

[8] = biological target: T8, RssB peptide library spot 21 (13-mer) (E. coli) (UniProt P0AEV1); experiment: as above
T8 sequence (peptide): MPRMNGLKLLEHI

[9] = biological target: T9, RssB peptide library spot 91 (13-mer) (E. coli) (UniProt P0AEV1); experiment: as above
T9 sequence (peptide): ELKNLILVSAGLN

[10] = biological target: T10, RssB (residues 1–337), untagged (E. coli, UniProt P0AEV1 1-337); experiment: cross-linking; 0.005% (v/v) glutaraldehyde, 35 μg of each protein, 20 mM Hepes-KOH pH 7.5, 140 mM NaCl, 10 mM MgCl2, time course; SDS-PAGE and immunodecoration (anti-His, anti-RssB or anti-σS antisera); both purified
T10 sequence (looked up): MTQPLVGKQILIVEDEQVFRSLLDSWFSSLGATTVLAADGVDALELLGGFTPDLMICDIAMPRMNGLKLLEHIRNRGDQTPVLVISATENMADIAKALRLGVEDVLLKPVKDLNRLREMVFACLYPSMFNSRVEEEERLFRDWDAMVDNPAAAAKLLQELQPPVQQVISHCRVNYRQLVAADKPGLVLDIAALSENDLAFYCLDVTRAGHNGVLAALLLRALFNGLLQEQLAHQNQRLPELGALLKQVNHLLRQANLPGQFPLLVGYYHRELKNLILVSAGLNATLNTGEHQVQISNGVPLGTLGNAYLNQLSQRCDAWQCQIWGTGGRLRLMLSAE

[11] = biological target: T11, RssBN (residues 1–128), untagged (E. coli) (UniProt P0AEV1); experiment: as above
T11 sequence: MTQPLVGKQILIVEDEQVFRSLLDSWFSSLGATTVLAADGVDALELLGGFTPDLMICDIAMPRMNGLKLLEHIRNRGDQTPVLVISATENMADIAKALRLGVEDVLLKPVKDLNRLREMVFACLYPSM

[12] = biological target: T12, RssBC (residues 131–337), untagged (E. coli) (UniProt P0AEV1); experiment: as above
T12 sequence: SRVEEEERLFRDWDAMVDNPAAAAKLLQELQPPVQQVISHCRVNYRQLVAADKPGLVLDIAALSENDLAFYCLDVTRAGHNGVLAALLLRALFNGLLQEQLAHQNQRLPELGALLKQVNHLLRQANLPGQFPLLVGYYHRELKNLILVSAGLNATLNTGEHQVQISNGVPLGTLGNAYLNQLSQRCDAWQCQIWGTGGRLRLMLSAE

“His6-tagged zinc binding domain (ZBD) of E. coli ClpX (from UniProt P0A6H1) (domain or fragment)” was tested, and the binding [1] was “binds”, the binding [2] was “binds” and the binding [3] was “binds”. The binding [4] was “binds”, the binding [5] was “binds” and the binding [6] was “no binding (tested: 2.5 μM)”. For the same substance, the binding [7] was “binds”, the binding [8] was “binds” and the binding [9] was “binds”. The binding [10] was “binds”, the binding [11] was “no binding” and the binding [12] was “binds”.
